# Test results reported in patent US20130131321A1, “LIGANDS FOR ANTIBODY AND Fc-FUSION PROTEIN PURIFICATION BY AFFINITY CHROMATOGRAPHY” (GRAFFINITY PHARMACEUTICALS GMBH, priority 2010, published 2013).
# Assays:
# [1] = test system: Bevacizumab spiked into host cell proteins; test: Purification of antibody from cell culture supernatant, microtiter plate chromatography; set-up: species or system humanized; details: Bevacizumab 0.05 mg ml^−1 in HCP, 25 column volumes, elution sodium citrate pH 3.0
# [2] = test system: Bevacizumab spiked into host cell proteins; test: Purification of antibody from cell culture supernatant, column chromatography; set-up: species or system humanized; details: Bevacizumab 0.05 mg ml^−1 in HCP, 100 column volumes, elution sodium citrate pH 3.0
compound,measurement,setting,value
"COc1ccc(NC(=O)c2cc(-c3ccco3)n(C)n2)cc1C(=O)NCCCN [Ligand L1, 5-[5-(2-Furyl)-1-methylpyrazol-3-yl]carboxamido-2-methoxybenzoic acid N-(3-aminopropyl)amide]","Purity, Microtiter Plate Chromatography",[1],74%
same,"Yield, Microtiter Plate Chromatography",[1],85%
same,"Purity, Column Chromatography",[2],83%
same,"Yield, Column Chromatography",[2],90%
